From patent US20140343249A1, “CELL KILLING FUSION PEPTIDE EXHIBITING TUMOR CELL-SPECIFIC NECROSIS INDUCTION AND TUMOR REGRESSION” (INDUSTRY-ACADEMIC COOPERATION FOUNDATION, CHOSUN UNIVERSITY, priority 2011, published 2014)
Part of at least one peptide drawing is inferred or uncertain, most often the ends. Where no end group is shown, it is not given here.

Key:
CT-26 tumor [1] = experiment: In vivo screening of tumor regression activity, CT-26 tumor in BALB/C mice; set-up: key to In vivo Screening: NR: no regression (no decrease on the tumor volume); ND: not determined; details: for In vivo Screening: CT-26 tumor-bearing BALB/C mice, intravenous injection
Experimental: In order to test tumor regression activity of the cell-killing CKP fusion peptides manufactured in Example 1, colon cell line, CT-26 (1.5×10^5 cells) was subcutaneously injected into dorsal skin of BALB/C mice of 6 weeks old to form tumor. After about 10 days, when the formed tumor volume reach to about 70±10 mm^3, the cancer cell specific CKP fusion peptide 100 ul (1 mM) was intravenously injected continuously 2-3 times (1 injection/day) into 3 mice, respectively, and after 10-13 days, change on the tumor tissue volume (length×wide^2×0.5) was observed.

[2] = test system: PC3 cells, human prostate cancer cell line; experiment: Cell necrosis inducing activity in PC3 by XTT method; format: cell-based; details: PC3, 20 μM, after 15 min
[3] = test system: MCF-7 cells, human breast cancer cell line; experiment: Cell necrosis inducing activity in MCF-7 by XTT method; format: cell-based; details: MCF-7, 20 μM, after 15 min
CT-26 tumor [4] = experiment: Tumor regression activity of CTD7:CKP, CT-26 tumor in BALB/C mice; format: in vivo; details: 210 μg/mouse intravenously, 2 times (1 injection/day) then 3 times (1 injection/4 days), after 15 days
[5] = test system: HeLa cells, cervical cancer cell line; experiment: Cell necrosis inducing activity in HeLa by XTT method; format: cell-based, human; details: 20 μM, after 15 min
[6] = test system: HCT116 cells, human colon cancer cell line; experiment: Cell necrosis inducing activity in HCT116 by XTT method; format: cell-based; details: HCT116, 20 μM, after 15 min
[7] = test system: BJAB cells, human B-lymphoma cell line; experiment: Cell necrosis inducing activity in BJAB by XTT method; format: cell-based; details: 20 μM, after 15 min

Sequence | In vivo Screening (CT-26 tumor [1]) | further results
CGKRKGGKLLNLISKLF [CTD2:CKP, CGKRKGGKLLNLISKLF] | NR | –
CRGDKGGKLLNLISKLF [CTD18:CKP, CRGDKGGKLLNLISKLF] | NR | –
KLLNLISKLFGGCGKRK [CTD3:CKP, KLLNLISKLFGGCGKRK] | NR | –
KLLNLISKLFGGCRGDK [CTD19:CKP, KLLNLISKLFGGCRGDK] | NR | –
KLLNLISKLFGGRLLRLLR [CTD6:CKP, KLLNLISKLFGGRLLRLLR] | Toxic | –
KLLNLISKLFGGRPARPAR [CTD8:CKP, KLLNLISKLFGGRPARPAR] | NR | –
RLLRLLRGGKLLNLISKLF [CTD5:CKP, RLLRLLRGGKLLNLISKLF] | Toxic | –
RPARPARGGKLLNLISKLF [CTD7:CKP, RPARPARGGKLLNLISKLF] | – | cell necrosis inducing activity [2]: 31%; cell necrosis inducing activity [3]: 43.2%; change on the tumor tissue volume (CT-26 tumor [4]): largely decreased; cell necrosis inducing activity [5]: 33%; tumor regression (change on the tumor tissue volume) (CT-26 tumor [1]; 100 ul (1 mM) intravenously 2-3 times (1 injection/day), observed after 10-13 days): tumor tissue was completely removed or increase of the tumor tissue volume was remarkably inhibited; cell necrosis inducing activity [6]: 44%; cell necrosis inducing activity [7]: 27%
WIFPWIQLKLLNLISKLF [CTD4:CKP, WIFPWIQLKLLNLISKLF] | Toxic | –
